Experimental data as given in PMC9909879.
Construct, isoform or probe ends are uncertain for at least one entry. At least one result comes from cells or an extract, where the contact may be indirect. Negatives hold for the conditions tested. At least one verdict rests on a figure or table, not on a statement of the authors.

Amino acid sequences for entries named in this document (tags omitted). Residues count along the entry.
UniProt Q13308, 31-1070: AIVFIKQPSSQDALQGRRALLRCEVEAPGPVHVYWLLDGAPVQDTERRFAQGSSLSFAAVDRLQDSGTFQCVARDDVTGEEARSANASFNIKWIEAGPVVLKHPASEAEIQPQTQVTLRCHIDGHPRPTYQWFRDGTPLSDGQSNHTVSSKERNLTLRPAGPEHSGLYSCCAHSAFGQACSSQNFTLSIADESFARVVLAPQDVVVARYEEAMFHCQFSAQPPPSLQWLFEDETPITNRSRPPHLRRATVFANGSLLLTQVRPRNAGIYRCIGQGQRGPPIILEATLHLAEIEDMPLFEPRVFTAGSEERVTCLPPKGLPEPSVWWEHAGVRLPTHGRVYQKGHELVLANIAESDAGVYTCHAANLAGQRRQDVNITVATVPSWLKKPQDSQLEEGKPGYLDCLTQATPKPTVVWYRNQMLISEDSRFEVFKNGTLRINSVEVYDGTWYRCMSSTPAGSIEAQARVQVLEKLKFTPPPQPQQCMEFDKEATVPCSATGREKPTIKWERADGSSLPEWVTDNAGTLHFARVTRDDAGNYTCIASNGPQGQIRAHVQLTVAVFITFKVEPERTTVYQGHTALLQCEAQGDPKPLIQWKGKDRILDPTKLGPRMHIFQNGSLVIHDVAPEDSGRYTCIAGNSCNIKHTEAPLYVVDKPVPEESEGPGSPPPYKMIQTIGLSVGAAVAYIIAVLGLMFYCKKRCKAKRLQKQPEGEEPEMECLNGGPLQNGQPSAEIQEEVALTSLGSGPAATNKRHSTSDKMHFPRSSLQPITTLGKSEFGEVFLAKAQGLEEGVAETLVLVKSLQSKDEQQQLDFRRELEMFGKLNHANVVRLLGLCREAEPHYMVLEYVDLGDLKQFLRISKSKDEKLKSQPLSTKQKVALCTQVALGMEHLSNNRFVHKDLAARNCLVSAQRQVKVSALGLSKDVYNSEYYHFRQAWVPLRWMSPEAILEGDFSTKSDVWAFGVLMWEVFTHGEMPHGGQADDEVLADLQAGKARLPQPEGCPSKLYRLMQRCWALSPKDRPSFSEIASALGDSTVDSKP

Target: PTK-7 receptor (UniProt Q13308)
Assay: flow cytometry (cell binding/uptake)
Settings: on AuNPs-DNS, 1 nM particles, MCF-7 cells, 5'-SH, 1 nM Cy5-labeled AuNPs-DNS with cells in a glass dish, 37 °C, 6 h, salt and pH not given, protein on the cell surface

Sequence | binding result (negligible Cy5 fluorescence, PBS wash x3, medium, label: 3'-Cy5, single-stranded DNA) | binding result (includes internalization, PBS wash x3, medium, label: 3'-Cy5, single-stranded DNA)
TTTTTTTTTTTTTTTTTTTTGATGCAATTCCACTAATCAACCGTCCAAATTTCAGGTGATTACTGCAT [ControlCy5 (random sequence)] | no binding | 
TTTTTTTTTTTTTTTTTTTTCACTACAGAGGTTGCGTCTGTCCCACGTTGTCATGGGGGGTTGGCCTG [AptamerCy5 (Sgc8)] |  | binds
